Assay results from PMC12287161, “A bioactive soluble recombinant mouse LIGHT promotes effective tumor immune cell infiltration delaying tumor growth” (Journal of Molecular Medicine (Berlin, Germany), 2025).
No constants are given. Whether binding was seen depends on the method and setting. Some entries that bind do so weakly or less than the wild type.

Amino acid sequences for entries named in this document (tags omitted). A change or cut given only in a name is not applied to a line headed by its entry. Chains listed by the source or under a name are the forms on record and can include a tag or linker. Residues count along the entry.
UniProt P25445: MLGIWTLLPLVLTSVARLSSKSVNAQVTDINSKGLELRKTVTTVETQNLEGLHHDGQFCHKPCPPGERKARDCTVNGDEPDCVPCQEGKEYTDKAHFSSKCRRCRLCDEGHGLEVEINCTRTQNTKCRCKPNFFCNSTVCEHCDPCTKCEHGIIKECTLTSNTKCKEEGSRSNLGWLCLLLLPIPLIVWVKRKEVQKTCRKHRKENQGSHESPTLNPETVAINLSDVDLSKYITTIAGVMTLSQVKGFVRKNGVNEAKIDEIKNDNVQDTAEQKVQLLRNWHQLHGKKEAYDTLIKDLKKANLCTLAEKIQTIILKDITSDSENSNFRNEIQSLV
UniProt P50284, residues 31-223: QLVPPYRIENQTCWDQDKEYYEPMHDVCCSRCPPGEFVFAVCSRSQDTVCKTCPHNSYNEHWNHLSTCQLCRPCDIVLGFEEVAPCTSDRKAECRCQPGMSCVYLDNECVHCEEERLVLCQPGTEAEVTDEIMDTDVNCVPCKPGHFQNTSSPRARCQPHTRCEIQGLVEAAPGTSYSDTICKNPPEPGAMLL
mBTLA.Ig (Q7TSA3, form named): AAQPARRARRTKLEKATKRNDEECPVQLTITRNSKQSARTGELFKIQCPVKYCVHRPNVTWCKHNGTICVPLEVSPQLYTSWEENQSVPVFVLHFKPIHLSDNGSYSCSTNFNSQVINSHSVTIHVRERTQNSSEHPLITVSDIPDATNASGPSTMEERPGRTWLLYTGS
Flag-human LIGHT (O43557, form named): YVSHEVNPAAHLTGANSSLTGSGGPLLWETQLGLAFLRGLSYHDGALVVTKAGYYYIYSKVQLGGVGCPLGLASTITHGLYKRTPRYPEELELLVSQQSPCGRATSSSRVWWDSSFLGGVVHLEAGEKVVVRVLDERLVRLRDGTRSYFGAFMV

T1: mHVEM:Fas (mouse | human, UniProt Q80WM9 39-206; P25445 169-335)
T1 chain: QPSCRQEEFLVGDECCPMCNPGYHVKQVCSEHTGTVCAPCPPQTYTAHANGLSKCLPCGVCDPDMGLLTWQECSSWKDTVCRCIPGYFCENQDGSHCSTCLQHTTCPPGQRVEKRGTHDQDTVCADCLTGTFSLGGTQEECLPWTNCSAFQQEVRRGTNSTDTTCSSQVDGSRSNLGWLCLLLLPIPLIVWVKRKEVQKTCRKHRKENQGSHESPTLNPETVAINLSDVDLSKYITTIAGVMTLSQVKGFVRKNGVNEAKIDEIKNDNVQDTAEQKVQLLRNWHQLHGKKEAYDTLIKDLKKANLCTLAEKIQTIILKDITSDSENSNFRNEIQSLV


Experiments:
mLTβR.hIgG1 (mouse) = mLTβR.hIgG1 (mouse) (UniProt P50284); assay: ELISA; Maxisorp plates coated with serial dilutions of mHVEM.IgG2a or mLTβR.hIgG1 (control tags mIgG2a and hIgG1); Flag-hLIGHT at a fixed 50 ng/well; detected with biotinylated anti-Flag M2 and SA-HRPO, TMB, absorbance at 450 nm; both purified
[1] = biological target: mLTβR:Fas (mouse | human) (UniProt P50284+P25445); assay: flow cytometry on cells; purified fusion proteins (1 µg/ml) added to mHVEM:hFas or mLTβR:hFas Jurkat cells in FACS buffer (PBS, 2% FCS, 0.5 mM EDTA), 37 °C, 1 h; detected with biotinylated anti-mIgG2a (R19-15) or anti-Flag (M2) and streptavidin-Alexa Fluor 647; parental Jurkat cells as control; only the binder purified
mHVEM:Fas = biological target: T1, mHVEM:Fas; assay: as above

Molecule | binding (mLTβR.hIgG1 (mouse)) | binding (mHVEM:Fas) | binding [1]
mBTLA.Ig (from UniProt Q7TSA3 30-184) (Fc fusion) |  | binds | 
Ig.Foldon-mLIGHT (Fc fusion) GYIPEAPRDGQAYVRKDGEWVLLSTFLDGGKGSWEKLIQDQRSHQANPAAHLTGANASLIGIGGPLLWETRLGLAFLRGLTYHDGALVTMEPGYYYVYSKVQLSGVGCPQGLANGLPITHGLYKRTSRYPKELELLVSRRSPCGRANSSRVWWDSSFLGGVVHLEAGEEVVVRVPGNRLVRPRDGTRSYFGAFMV |  | binds | binds

Now from value to molecule, other results behind:

binding (mLTβR.hIgG1 (mouse)) | binding (mHVEM:Fas) | Molecule | binding [1]
binds |  | Flag-human LIGHT (from UniProt O43557 89-240) (ligand) | 
 | binds | Ig.mLIGHT (from UniProt Q9QYH9 72-239) (Fc fusion) | no binding (tested: 1 µg/ml)
